Test results published in PMC5526999, “Mass Spectrometry Imaging proves differential absorption profiles of well-characterised permeability markers along the crypt-villus axis” (Scientific Reports, 2017).

Assays:
[1] = LC-ESI MS/MS quantification of drug concentration in intestinal tissue homogenates after oral cassette administration; type: in vivo, rat; conditions: oral 10 µmol/kg, relative to 20 min
Method: Male rats (Han-Wistar, ~ 100 days old, body-weight ~ 300 g) were used in this study. The animals had free access to food and water and were fasted overnight prior drug administration and sacrifice. All experiments were performed in accordance with relevant guidelines and regulations, the animal work was approved by the Local Animal Research Ethics Board of Gothenburg, Sweden. […] The small intestine was collected 20 and 45 min post administration. Four animals were dosed in this study, and non-dosed tissue was prepared from control rats in parallel. The three selected compounds are well characterised drugs and their in-vivo pharmacokinetics have been established in many species, [42], [43]. Therefore, in the present study we focussed on the concept of “vertical” absorption gradients along the crypt-villous axis, which has not been studied earlier. The intestine was removed under anaesthesia using isoflurane (Forene, Abbott, USA), to ensure full viability and oxygenation of the tissue until the moment of excision. […] The samples were analysed by LC-MS/MS and quantified against a calibration standard curve. […] Data was acquired using multiple reaction monitoring (MRM) and mass transitions determined by QuanOptimize (Waters). […] Concentrations were determined against matrix-spiked calibration standards over a range of 6.8nM- 1 µM, for all methods weighted linear regression (1/X^2) was applied.

Caco-2 = test system: Caco-2; parameters: method as in PMID 1673839, PMID 11259831, PMID 9523990; conditions: ref [1], [15] and [48]; cited from earlier work
[2] = MALDI-MSI of drug distribution in rat small intestine after oral cassette administration; type: in vivo
Method: Male rats (Han-Wistar, ~ 100 days old, body-weight ~ 300 g) were used in this study. […] All experiments were performed in accordance with relevant guidelines and regulations, the animal work was approved by the Local Animal Research Ethics Board of Gothenburg, Sweden. […] Four animals were dosed in this study, and non-dosed tissue was prepared from control rats in parallel. […] Therefore, in the present study we focussed on the concept of “vertical” absorption gradients along the crypt-villous axis, which has not been studied earlier. The intestine was removed under anaesthesia using isoflurane (Forene, Abbott, USA), to ensure full viability and oxygenation of the tissue until the moment of excision. Animals were sacrificed without regaining consciousness by aortal incision and an overdose of isoflurane. Immediately after excision, intestines were divided into 10 cm long segments and each segment was carefully washed with Krebs-Bicarbonate-Ringer buffer (KBR) from the stomach to the large intestine (additional information in Supplementary Data). The first 5–10 mm of each segment were cut, quickly weighed and collected in homogenization tubes for subsequent extraction and LCMS analysis of total drug concentration in the gut-wall. The next 8–9 cm of each segment were prepared for MALDI-MSI analysis. […] The CMC gels quickly on wet-ice/isopropanol and provides tissue support during the subsequent cryosectioning. All samples were stored at −20 °C until cryosectioning. The embedded samples were attached and positioned with OCT-compound (TissueTek) to the specimen holder of a microtome (Cryo-Star HM 560 M, Microm International, Germany) set to −20 °C. The samples were sectioned at 10 µm thickness. […] A control tissue section from the same intestinal region from non-dosed animal was placed on each slide to enable a direct comparison to be made. All slides were kept at −80 °C until MALDI-MSI analysis. Tissue sections were also stained using haematoxylin and eosin (H&E) following a standard histological protocol for fresh frozen tissues. […]

[3] = ref [4]; cited from earlier work

## CC(C)NCC(O)COc1ccc(CC(N)=O)cc1 (stereo not drawn) [Atenolol]
[1]
  compound remaining in the intestine 45 min post-dosing: about 50%
Caco-2
  Caco-2 Papp: 0.20 1E-6.cm/s
[2]; oral 1 µmol/kg, 20 min, 15 µm spatial resolution
  distribution along the crypt-villus axis (ion images): more evenly distributed along the whole crypt-villus axis
[2]; oral 1 µmol/kg, 20 min post administration
  distance downstream from the stomach of highest relative abundance (MALDI-MSI): 50–60 cm
[2]; oral 10 µmol/kg
  distribution along the height of the villi (ion images): more even distribution along the height of the villi
[3]
  overall absorption: around 50%
